Taken from: PubChem BioAssay AID493246 (Drosophila RNAi Screening Center, 2011)
The deposit covers about 21,000 reagents; shown is a random part of those with a known target gene and a result. In the full data, 429 (2%) got an active call. 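Values are raw and not normalised between plates; calls rest on per-plate z-scores that were not deposited.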 Reagents against one gene are numbered here. A plus sign joins genes that one reagent is predicted to hit. Not stated in the record: the amount of reagent, the time to read-out.

Assay: 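Genome-wide search for dsRNAs that reduce cell number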 (primary screen)
System: Drosophila Kc and S2R+ cells
Reagent: long dsRNA against Drosophila genes
Read-out: 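Cell number per well after knock-down, printed as raw plate values; calls were based on per-plate z-scores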
Direction: Kc cell number and S2R+ cell number: higher = more cells remaining
Hit rule: 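Active when the per-plate z-score of cell number is 3 or more in the direction of fewer cells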

CG34150
- Kc cell number, rep 1: 1.16e6
- Kc cell number, rep 2: 1.48e6
- S2R+ cell number, rep 1: 1.12e6
- S2R+ cell number, rep 2: 1.14e6
- outcome: inactive

BEAF-32 + CG42254 (retired record)
- Kc cell number, rep 1: 1.42e6
- Kc cell number, rep 2: 1.42e6
- S2R+ cell number, rep 1: 1.00e6
- S2R+ cell number, rep 2: 1.12e6
- outcome: inactive

CG18581
- Kc cell number, rep 1: 1.37e6
- Kc cell number, rep 2: 1.47e6
- S2R+ cell number, rep 1: 1.16e6
- S2R+ cell number, rep 2: 1.27e6
- outcome: inactive

ex
- Kc cell number, rep 1: 1.19e6
- Kc cell number, rep 2: 1.26e6
- S2R+ cell number, rep 1: 7.64e5
- S2R+ cell number, rep 2: 8.10e5
- outcome: inactive

CG14740
- Kc cell number, rep 1: 1.49e6
- Kc cell number, rep 2: 1.57e6
- S2R+ cell number, rep 1: 1.31e6
- S2R+ cell number, rep 2: 1.33e6
- outcome: inactive

CG18179
- Kc cell number, rep 1: 1.38e6
- Kc cell number, rep 2: 1.34e6
- S2R+ cell number, rep 1: 1.22e6
- S2R+ cell number, rep 2: 1.35e6
- outcome: inactive

jbug #1
- Kc cell number, rep 1: 5.27e5
- S2R+ cell number, rep 1: 8.54e5
- outcome: inactive

jbug #2
- Kc cell number, rep 1: 1.35e6
- Kc cell number, rep 2: 1.42e6
- S2R+ cell number, rep 1: 1.05e6
- S2R+ cell number, rep 2: 1.17e6
- outcome: inactive

jbug #3
- Kc cell number, rep 1: 1.86e6
- Kc cell number, rep 2: 1.85e6
- S2R+ cell number, rep 1: 1.25e6
- S2R+ cell number, rep 2: 1.34e6
- outcome: inactive

jbug #4
- Kc cell number, rep 1: 1.68e6
- Kc cell number, rep 2: 1.71e6
- S2R+ cell number, rep 1: 1.38e6
- S2R+ cell number, rep 2: 1.49e6
- outcome: inactive

Part of the list above in another layout.
jbug #1 → Kc cell number, rep 1 = 5.27e5; S2R+ cell number, rep 1 = 8.54e5; outcome = inactive
jbug #2 → Kc cell number, rep 1 = 1.35e6; Kc cell number, rep 2 = 1.42e6; S2R+ cell number, rep 1 = 1.05e6; S2R+ cell number, rep 2 = 1.17e6; outcome = inactive

The listing continues:
Nepl4
- Kc cell number, rep 1: 1.33e6
- Kc cell number, rep 2: 1.37e6
- S2R+ cell number, rep 1: 6.28e5
- S2R+ cell number, rep 2: 6.94e5
- outcome: inactive

DIP-beta #1
- Kc cell number, rep 1: 1.36e6
- Kc cell number, rep 2: 1.45e6
- S2R+ cell number, rep 1: 1.14e6
- S2R+ cell number, rep 2: 1.11e6
- outcome: inactive

DIP-beta #2
- Kc cell number, rep 1: 1.51e6
- Kc cell number, rep 2: 1.55e6
- S2R+ cell number, rep 1: 1.04e6
- S2R+ cell number, rep 2: 1.18e6
- outcome: inactive

DIP-beta #3
- Kc cell number, rep 1: 1.49e6
- Kc cell number, rep 2: 1.48e6
- S2R+ cell number, rep 1: 1.02e6
- S2R+ cell number, rep 2: 1.14e6
- outcome: inactive

DIP-beta #4
- Kc cell number, rep 1: 1.72e6
- Kc cell number, rep 2: 1.70e6
- S2R+ cell number, rep 1: 1.06e6
- S2R+ cell number, rep 2: 1.20e6
- outcome: inactive
